No constants are given. Whether binding was seen depends on the method and setting. In cells and extracts the contact can be indirect. Binding calls can cover weak binding; strength is not graded here.
Biological target: V5-tagged Nedd4-2(CS), catalytically inactive mutant (UniProt Q96PU5)
Experiment: co-IP; HEK293T or HeLa cells transfected 2 days, iso- or hyper-osmotic medium (600 mOSM) for 15 min; 1 mg cleared lysate (1% Triton X-100, 150 mM NaCl, Hepes pH 7.5); Nedd4-2 immunoprecipitated with anti-V5 affinity beads, DNMBP detected by immunoblot for HA or DNMBP

Sequences of proteins named here, by UniProt entry; tags and fusion partners are left off. A change or cut given only in a name is not applied to a line headed by its entry.
UniProt Q96PU5: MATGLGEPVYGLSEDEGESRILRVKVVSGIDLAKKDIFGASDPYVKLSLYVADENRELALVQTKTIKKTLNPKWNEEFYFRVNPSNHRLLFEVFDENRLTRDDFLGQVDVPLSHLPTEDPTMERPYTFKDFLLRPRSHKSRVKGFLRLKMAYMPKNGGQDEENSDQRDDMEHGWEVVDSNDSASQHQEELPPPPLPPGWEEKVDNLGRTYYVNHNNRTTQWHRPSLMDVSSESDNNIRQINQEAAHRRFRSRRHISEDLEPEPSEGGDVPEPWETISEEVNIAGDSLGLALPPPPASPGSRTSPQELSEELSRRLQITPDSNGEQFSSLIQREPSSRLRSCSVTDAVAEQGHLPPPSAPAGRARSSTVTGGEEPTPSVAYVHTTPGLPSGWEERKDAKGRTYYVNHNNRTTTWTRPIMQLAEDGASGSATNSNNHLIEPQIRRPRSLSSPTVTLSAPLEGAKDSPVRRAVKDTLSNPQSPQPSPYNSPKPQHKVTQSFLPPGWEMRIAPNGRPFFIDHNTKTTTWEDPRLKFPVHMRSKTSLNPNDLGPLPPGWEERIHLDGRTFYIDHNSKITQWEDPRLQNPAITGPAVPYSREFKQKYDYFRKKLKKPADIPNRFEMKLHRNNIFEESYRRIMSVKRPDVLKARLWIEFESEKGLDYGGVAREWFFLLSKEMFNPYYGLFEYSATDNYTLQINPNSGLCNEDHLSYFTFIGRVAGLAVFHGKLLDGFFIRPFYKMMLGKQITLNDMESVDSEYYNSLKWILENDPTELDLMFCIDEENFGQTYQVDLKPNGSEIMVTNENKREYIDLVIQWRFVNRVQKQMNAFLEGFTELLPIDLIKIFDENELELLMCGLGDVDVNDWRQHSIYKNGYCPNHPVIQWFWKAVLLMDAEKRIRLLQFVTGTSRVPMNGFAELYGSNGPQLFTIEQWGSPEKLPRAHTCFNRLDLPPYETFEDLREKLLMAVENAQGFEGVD
UniProt Q6XZF7: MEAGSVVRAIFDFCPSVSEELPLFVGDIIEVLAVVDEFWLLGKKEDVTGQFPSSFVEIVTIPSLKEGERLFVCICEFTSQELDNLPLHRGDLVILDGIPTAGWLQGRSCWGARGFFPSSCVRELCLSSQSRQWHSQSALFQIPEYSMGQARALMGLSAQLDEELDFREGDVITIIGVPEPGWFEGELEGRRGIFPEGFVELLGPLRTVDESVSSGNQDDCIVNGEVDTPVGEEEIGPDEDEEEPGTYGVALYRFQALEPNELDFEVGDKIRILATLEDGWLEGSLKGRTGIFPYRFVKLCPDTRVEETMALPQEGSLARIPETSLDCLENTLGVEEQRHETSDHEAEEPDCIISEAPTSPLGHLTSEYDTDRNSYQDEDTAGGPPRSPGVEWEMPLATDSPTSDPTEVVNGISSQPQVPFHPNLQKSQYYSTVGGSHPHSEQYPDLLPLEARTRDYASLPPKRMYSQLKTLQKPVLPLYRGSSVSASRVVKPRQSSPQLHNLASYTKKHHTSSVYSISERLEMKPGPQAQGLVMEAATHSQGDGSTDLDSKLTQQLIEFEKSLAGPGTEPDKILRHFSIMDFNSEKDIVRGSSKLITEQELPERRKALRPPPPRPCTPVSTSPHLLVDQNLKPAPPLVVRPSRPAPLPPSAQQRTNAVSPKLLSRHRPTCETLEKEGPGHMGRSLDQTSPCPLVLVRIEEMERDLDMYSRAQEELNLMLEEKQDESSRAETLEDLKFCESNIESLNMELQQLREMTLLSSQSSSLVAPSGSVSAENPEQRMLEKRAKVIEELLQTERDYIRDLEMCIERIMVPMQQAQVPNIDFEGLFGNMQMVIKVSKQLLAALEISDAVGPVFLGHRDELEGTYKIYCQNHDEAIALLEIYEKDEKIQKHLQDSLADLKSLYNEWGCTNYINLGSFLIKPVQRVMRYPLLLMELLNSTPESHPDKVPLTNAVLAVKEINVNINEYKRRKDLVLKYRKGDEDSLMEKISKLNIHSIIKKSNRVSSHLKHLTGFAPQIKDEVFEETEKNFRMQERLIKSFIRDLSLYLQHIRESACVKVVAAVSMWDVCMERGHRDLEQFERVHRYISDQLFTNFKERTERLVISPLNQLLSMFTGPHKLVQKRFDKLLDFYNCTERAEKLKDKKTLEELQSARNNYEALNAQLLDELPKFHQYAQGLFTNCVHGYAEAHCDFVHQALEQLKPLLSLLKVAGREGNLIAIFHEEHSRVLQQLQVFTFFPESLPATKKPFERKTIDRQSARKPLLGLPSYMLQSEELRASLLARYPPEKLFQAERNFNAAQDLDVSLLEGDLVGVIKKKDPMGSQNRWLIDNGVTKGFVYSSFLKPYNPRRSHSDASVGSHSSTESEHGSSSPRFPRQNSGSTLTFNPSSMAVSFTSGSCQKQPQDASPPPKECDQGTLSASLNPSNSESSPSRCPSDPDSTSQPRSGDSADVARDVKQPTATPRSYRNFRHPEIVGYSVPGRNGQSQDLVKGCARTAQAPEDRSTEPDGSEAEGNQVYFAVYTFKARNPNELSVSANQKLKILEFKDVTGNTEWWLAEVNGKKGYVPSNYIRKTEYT

binding: binds
Substance: HA-tagged Dynamin Binding Protein (DNMBP) (from UniProt Q6XZF7 1-1577)

— paper PMC12569825
